Laboratory results from article PMC12646653.
Results are given in words; binding and its absence hold for the method and conditions named. In cells and extracts the contact can be indirect. Some binding calls cover weakened binding; strength is not graded here.

Chains of the proteins cited; added tags and fusions are not shown.
UniProt Q00532: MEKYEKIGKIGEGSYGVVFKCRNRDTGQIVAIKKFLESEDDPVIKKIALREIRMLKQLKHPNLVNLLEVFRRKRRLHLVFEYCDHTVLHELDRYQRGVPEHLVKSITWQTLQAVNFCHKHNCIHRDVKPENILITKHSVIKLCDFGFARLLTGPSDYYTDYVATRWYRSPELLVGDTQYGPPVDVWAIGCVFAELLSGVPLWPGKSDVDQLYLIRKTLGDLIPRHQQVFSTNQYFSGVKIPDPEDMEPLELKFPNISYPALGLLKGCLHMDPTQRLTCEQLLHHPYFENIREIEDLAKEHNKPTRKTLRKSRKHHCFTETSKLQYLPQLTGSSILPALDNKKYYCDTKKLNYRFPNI
UniProt Q9UG01: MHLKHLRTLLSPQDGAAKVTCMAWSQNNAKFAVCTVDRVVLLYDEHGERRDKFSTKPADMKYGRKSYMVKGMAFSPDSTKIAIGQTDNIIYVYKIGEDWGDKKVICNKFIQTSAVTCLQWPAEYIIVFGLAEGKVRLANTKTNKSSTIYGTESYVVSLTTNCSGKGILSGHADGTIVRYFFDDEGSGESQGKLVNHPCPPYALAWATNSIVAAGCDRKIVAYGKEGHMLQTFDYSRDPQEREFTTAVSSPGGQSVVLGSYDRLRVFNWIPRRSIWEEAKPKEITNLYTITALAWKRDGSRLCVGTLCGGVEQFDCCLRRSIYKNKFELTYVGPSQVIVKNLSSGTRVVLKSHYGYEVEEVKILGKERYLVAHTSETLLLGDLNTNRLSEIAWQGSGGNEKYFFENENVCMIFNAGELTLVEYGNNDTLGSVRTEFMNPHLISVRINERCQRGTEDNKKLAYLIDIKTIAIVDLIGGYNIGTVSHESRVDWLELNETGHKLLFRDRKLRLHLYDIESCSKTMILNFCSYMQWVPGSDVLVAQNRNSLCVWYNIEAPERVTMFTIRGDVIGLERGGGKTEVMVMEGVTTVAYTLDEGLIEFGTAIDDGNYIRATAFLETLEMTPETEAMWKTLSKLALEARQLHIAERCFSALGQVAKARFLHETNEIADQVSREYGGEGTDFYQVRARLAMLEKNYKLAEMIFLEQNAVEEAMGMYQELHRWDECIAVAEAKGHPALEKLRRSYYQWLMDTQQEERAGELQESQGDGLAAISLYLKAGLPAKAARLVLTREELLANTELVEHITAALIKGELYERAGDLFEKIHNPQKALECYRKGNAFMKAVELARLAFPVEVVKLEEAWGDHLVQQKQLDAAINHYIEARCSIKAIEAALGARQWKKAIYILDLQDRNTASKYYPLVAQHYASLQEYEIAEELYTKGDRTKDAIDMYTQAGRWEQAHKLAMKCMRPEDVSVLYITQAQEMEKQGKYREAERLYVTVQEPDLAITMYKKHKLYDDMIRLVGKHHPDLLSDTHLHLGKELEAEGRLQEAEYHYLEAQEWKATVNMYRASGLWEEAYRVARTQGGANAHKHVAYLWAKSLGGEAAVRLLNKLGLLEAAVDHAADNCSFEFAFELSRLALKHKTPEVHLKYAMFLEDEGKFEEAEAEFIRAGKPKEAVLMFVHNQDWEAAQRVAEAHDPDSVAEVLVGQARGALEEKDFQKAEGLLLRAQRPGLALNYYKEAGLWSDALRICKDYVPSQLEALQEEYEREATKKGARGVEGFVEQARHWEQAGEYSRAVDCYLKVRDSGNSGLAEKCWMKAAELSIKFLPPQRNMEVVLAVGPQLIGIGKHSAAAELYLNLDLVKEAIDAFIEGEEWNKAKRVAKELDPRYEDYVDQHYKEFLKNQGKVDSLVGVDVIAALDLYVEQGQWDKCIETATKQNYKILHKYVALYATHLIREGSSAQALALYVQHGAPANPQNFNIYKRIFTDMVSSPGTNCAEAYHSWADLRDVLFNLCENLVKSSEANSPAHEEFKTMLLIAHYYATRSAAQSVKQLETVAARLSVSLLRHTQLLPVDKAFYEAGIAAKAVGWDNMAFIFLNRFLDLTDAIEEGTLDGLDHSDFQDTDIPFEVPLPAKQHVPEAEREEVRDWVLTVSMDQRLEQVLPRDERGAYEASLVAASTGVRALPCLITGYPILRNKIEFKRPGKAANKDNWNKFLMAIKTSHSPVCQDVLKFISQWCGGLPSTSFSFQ

Target: CDKL1 wild-type (cyclin-dependent kinase-like 1), EGFP-tagged (human) (UniProt Q00532)
Experiment: co-IP; total lysates of HEK293T cells expressing EGFP-tagged CDKL1 variants or EGFP; IP with GFP-Trap beads; endogenous IFT52, IFT172, CFAP20 and TUBA1A detected by immunoblot; n = 3

binding | Molecule
binds | IFT172 (from UniProt Q9UG01 1-1749)
binds | IFT52 (protein, UniProt Q9Y366 1-437) MEKELRSTILFNAYKKEIFTTNNGYKSMQKKLRSNWKIQSLKDEITSEKLNGVKLWITAGPREKFTAAEFEILKKYLDTGGDVFVMLGEGGESRFDTNINFLLEEYGIMVNNDAVVRNVYHKYFHPKEALVSSGVLNREISRAAGKAVPGIIDEESSGNNAQALTFVYPFGATLSVMKPAVAVLSTGSVCFPLNRPILAFYHSKNQGGKLAVLGSCHMFSDQYLDKEENSKIMDVVFQWLTTGDIHLNQIDAEDPEISDYMMLPYTATLSKRNRECLQESDEIPRDFTTLFDLSIFQLDTTSFHSVIEAHEQLNVKHEPLQLIQPQFETPLPTLQPAVFPPSFRELPPPPLELFDLDETFSSEKARLAQITNKCTEEDLEFYVRKCGDILGVTSKLPKDQQDAKHILEHVFFQVVEFKKLNQEHDIDTSETAFQNNF
binds | CFAP20 (protein, UniProt Q9Y6A4 1-193) MFKNTFQSGFLSILYSIGSKPLQIWDKKVRNGHIKRITDNDIQSLVLEIEGTNVSTTYITCPADPKKTLGIKLPFLVMIIKNLKKYFTFEVQVLDDKNVRRRFRASNYQSTTRVKPFICTMPMRLDDGWNQIQFNLLDFTRRAYGTNYIETLRVQIHANCRIRRVYFSDRLYSEDELPAEFKLYLPVQNKAKQ
